The record followed here is patent US7220755B2, “42-O-alkoxyalkyl rapamycin derivatives and compositions comprising same” (Biosensors International Group, Ltd., priority 2003, dated 2007).

This series relates to pig coronary artery (restenosis after overstretch injury). Nature of the series: Pig coronary artery overstretch injury model with drug-eluting stents. In kind it is in vivo. As to the method: In another study, stents carrying 42-O-(2-ethoxyethyl) rapamycin in the form of a polymer (poly-dl-lactic acid) coating were prepared for insertion into pigs with a vessel overstretch injury to the coronary artery. Comparative and control stents includes bare metal stents, stents having a polymer coating of poly-dl-lactic acid absent drug, stents carrying rapamycin in a poly-dl-lactic acid polymer coating, and stents carrying everolimus in a poly-dl-lactic acid polymer coating. The stents were inserted into vessels which seriously injured (averaging approximately 36% overstretch injury of the vessel) using an angioplasty balloon. […] In this way, it was possible to assess the relative effectiveness of the various test compounds presented to the vessels on the same metal stent/polymer platform. At the time of insertion, the extent of overstretch was recorded as a percent balloon/artery (B/A) ratio.

The mark [1] stands for this setting: high dose, drug load 325 μg, polymer coat 1300 μg, 28 days.
The mark [2] stands for this setting: low dose, drug load 180 μg, polymer coat 1300 μg.

For the molecule `CO[C@H]1C[C@@H]2CC[C@@H](C)[C@@](O)(O2)C(=O)C(=O)N2CCCC[C@H]2C(=O)O[C@H]([C@H](C)C[C@@H]2CC[C@@H](OCCO)[C@H](OC)C2)CC(=O)[C@H](C)/C=C(\C)[C@@H](O)[C@@H](OC)C(=O)[C@H](C)C[C@H](C)/C=C/C=C/C=C/1C` [everolimus], the “Average Injury score” value (high dose, drug load 325 μg, polymer coat 1300 μg, 6 months) turned out to be 2.67; the “Average Injury score” value under setting [1] is 1.89; the “Average Injury score” value under setting [2] turned out to be 2.10; the “Average Injury score” value (med. dose, drug load 275 μg, polymer coat 640–780 μg) is listed as 2.13.
In the case of `CO[C@H]1C[C@@H]2CC[C@@H](C)[C@@](O)(O2)C(=O)C(=O)N2CCCC[C@H]2C(=O)O[C@H]([C@H](C)C[C@@H]2CC[C@@H](O)[C@H](OC)C2)CC(=O)[C@H](C)/C=C(\C)[C@@H](O)[C@@H](OC)C(=O)[C@H](C)C[C@H](C)/C=C/C=C/C=C/1C` [rapamycin], the “Average Injury score” value runs as follows: under setting [1], 2.10; under setting [2], 1.90.
As to `CCOCCO[C@@H]1CC[C@@H](C[C@@H](C)[C@@H]2CC(=O)[C@H](C)/C=C(\C)[C@@H](O)[C@@H](OC)C(=O)[C@H](C)C[C@H](C)/C=C/C=C/C=C(\C)[C@@H](OC)C[C@@H]3CC[C@@H](C)[C@@](O)(O3)C(=O)C(=O)N3CCCC[C@H]3C(=O)O2)C[C@H]1OC` [42-O-(2-ethoxyethyl) rapamycin], the “Average Injury score” value (drug load 225 μg, polymer coat 225 μg, stent length 15 mm) turned out to be 1.29.
